This experiment has as its target insulin-like growth factor-1 receiver (IGF-1R) (human (endogenous in HSF)) (UniProt P08069). Nature of the experiment: co-IP; HSF cells transduced with Ad-NC, Ad-shRNA-Hrd1 or Ad-Hrd1, MG-132 for 4 h, lysed in RIPA buffer with protease/phosphatase inhibitors; precipitated with anti-IGF-1R antibody and protein-A/G magnetic beads, blotted for Hrd1.

Sequences of proteins named here, by UniProt entry; tags and fusion partners are left off. A change or cut given only in a name is not applied to a line headed by its entry. Residues count along the entry.
UniProt P08069, residues 31-1367: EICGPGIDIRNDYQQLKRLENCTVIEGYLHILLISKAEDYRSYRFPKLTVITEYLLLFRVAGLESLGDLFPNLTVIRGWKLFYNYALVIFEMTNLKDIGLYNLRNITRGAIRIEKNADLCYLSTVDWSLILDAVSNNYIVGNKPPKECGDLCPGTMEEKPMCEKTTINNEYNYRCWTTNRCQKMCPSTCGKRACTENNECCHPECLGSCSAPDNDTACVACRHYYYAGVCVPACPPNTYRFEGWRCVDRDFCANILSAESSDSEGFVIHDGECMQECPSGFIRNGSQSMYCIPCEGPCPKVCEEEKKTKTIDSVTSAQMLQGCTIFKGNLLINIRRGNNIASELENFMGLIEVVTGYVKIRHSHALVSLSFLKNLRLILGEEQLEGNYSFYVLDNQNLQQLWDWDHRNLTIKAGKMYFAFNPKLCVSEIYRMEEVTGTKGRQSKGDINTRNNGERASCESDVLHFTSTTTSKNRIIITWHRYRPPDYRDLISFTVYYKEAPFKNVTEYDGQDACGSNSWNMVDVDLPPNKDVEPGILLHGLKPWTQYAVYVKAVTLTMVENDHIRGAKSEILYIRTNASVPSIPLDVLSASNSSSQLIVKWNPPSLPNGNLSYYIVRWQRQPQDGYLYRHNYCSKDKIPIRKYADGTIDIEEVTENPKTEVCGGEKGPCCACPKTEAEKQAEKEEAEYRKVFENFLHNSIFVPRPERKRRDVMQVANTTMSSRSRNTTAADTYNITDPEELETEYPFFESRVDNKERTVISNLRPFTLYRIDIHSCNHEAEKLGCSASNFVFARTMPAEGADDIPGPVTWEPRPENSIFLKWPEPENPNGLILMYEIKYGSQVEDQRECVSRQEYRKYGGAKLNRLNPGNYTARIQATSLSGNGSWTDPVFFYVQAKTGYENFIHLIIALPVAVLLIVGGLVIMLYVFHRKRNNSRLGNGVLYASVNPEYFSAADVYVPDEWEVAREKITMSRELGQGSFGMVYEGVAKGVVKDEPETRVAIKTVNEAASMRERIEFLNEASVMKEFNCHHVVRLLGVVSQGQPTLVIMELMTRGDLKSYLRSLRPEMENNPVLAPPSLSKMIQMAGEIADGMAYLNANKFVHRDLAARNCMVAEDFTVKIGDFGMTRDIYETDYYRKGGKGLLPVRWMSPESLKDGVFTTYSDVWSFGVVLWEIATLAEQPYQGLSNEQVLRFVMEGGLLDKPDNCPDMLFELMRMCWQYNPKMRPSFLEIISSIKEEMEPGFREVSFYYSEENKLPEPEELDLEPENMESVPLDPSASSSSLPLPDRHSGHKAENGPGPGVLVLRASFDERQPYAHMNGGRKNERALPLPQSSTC
UniProt Q86TM6: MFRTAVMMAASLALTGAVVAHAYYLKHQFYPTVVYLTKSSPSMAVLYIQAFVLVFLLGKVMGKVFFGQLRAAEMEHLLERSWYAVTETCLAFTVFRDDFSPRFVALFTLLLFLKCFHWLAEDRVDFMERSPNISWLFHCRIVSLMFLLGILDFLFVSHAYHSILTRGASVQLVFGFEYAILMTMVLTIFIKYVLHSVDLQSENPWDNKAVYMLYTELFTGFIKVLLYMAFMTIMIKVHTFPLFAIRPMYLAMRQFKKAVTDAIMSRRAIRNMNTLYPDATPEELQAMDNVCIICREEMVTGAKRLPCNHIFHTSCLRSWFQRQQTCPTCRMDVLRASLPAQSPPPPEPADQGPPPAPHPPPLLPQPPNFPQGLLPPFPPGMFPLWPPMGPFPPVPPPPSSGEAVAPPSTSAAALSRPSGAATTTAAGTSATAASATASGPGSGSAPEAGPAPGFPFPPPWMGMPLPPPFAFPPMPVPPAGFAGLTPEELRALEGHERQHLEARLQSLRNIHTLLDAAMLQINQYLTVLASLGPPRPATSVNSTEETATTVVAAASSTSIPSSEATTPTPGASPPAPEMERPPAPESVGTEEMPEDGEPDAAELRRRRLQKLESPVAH

Results on 2 substances are retold here after publication PMC7695362.

These are yes or no findings as the source states them, for the method shown. Binding seen in cells or lysates may run through a third protein. Some entries that bind do so weakly or less than the wild type.

Regarding “Hrd1 overexpressed from adenovirus Ad-Hrd1 (from UniProt Q86TM6-1 1-617) (enzyme)”, the binding entry was “binds”.

As for “Hrd1 (hydroxymethylglutaryl coenzyme A reductase degrades protein 1) (from UniProt Q86TM6 1-617)”, the binding entry is “binds”.
